# From publication PMC5575334
# Sequences of proteins named here, by UniProt entry; tags and fusion partners are left off. A change or cut given only in a name is not applied to a line headed by its entry. A line that says so, or that is headed by a name, gives the form on record, which may keep a tag or linker.
# UniProt P60953: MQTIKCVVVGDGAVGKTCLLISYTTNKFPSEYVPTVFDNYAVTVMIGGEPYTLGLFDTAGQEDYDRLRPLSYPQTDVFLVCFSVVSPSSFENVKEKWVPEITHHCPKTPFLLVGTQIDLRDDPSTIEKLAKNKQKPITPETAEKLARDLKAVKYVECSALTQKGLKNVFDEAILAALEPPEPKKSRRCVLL
# EGFP-tagged Cdc42-L61 (P60953, form named): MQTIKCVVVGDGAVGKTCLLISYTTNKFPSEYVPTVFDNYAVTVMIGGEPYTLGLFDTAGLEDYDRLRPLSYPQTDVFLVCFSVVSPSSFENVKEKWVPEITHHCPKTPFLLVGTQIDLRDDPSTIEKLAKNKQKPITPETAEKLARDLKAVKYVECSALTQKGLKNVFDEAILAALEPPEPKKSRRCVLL
# UniProt A2APV2: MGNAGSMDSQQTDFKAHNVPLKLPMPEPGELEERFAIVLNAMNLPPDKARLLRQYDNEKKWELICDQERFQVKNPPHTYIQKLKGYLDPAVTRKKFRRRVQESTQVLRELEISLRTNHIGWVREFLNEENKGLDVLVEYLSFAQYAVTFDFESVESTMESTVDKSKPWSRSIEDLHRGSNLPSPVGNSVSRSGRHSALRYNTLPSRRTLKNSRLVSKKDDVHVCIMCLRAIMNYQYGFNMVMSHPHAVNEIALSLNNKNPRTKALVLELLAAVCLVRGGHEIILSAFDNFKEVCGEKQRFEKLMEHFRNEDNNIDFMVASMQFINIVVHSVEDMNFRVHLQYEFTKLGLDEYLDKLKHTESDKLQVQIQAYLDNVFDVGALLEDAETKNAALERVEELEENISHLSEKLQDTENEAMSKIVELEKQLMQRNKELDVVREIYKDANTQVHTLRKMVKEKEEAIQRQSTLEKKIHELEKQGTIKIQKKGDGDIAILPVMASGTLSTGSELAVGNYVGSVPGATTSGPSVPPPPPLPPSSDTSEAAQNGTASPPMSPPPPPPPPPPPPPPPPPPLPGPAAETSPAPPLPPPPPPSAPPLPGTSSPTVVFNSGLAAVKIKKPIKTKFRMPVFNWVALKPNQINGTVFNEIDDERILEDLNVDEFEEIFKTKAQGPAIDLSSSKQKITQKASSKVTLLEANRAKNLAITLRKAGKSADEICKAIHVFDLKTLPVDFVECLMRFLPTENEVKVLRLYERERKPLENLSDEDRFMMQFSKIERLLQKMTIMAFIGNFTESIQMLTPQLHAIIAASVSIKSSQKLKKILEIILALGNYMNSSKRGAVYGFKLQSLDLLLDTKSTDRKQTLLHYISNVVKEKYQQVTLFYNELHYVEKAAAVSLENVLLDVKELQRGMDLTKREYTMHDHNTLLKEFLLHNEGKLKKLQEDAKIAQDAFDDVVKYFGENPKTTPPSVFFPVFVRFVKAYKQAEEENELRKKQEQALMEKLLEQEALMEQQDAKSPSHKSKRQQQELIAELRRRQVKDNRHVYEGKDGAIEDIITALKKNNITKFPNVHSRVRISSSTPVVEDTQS
# Results are given in words; binding and its absence hold for the method and conditions named. Binding seen in cells or lysates may run through a third protein. Some results given as binding are weak or reduced against the parent protein; the word gives no strength.
# Molecular target: EGFP-tagged Cdc42-L61 (UniProt P60953)
# Experiment: co-IP; GFP-Trap_A beads precipitate EGFP-tagged baits from lysates of transfected B16-F1 cells; IP-buffer (140 mM KCl, 50 mM Tris-HCl pH 7.4, 50 mM NaF, 10 mM Na4P2O7, 2 mM MgCl2, 1% Triton-X100), 1 h at 4 °C; endogenous proteins detected by Western blot
substance,measurement,value
endogenous FMNL2 (from UniProt A2APV2 1-1086),binding,binds
